Data: patent publication US20150335707A1
These are yes or no findings as the source states them, for the method shown. For part of these data: Binding seen in cells or lysates may run through a third protein. Some binding calls cover weakened binding; strength is not graded here. For part of these data: Tags and fused reporters may be left off the sequences shown.

The chains behind the UniProt entries cited, without tags or fusion partners. Residues count along the entry.
UniProt P06869, residues 21-433: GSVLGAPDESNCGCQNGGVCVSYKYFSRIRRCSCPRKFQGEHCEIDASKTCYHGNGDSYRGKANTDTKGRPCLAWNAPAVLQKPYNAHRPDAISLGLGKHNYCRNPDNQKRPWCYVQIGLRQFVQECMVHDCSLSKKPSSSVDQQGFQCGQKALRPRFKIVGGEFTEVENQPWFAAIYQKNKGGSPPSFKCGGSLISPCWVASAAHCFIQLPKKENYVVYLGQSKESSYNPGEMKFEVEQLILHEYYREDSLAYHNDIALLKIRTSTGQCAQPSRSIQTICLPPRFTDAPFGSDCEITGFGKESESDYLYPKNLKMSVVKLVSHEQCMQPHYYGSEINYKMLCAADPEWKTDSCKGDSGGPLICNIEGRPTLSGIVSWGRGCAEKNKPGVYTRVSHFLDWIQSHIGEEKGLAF

Tests used:
uPA in kidney lysate [1] = target: uPA in kidney lysate (UniProt P06869); test: ligand blot: kidney lysate separated by non-denaturing PAGE, overlaid with His-Slurp1, probed with anti-Slurp1, re-probed with anti-uPA
uPA in kidney lysate [2] = target: uPA in kidney lysate (UniProt P06869); test: pull-down: His-Slurp1 on Ni-ion resin incubated with kidney lysate, bound uPA detected by anti-uPA immunoblot
[3] = target: MBP-uPA fusion protein (recombinant, expressed in E. coli, partially purified on amylose column) (UniProt P06869); test: ELISA: MBP-Slurp1 coated, MBP-uPA layered, detected with anti-uPA antibody; MBP-coated wells as control
[4] = target: cleaved, partially purified uPA (UniProt P06869); test: ELISA: MBP-Slurp1 coated, cleaved uPA layered, detected with anti-uPA antibody; MBP-coated wells as control
[5] = target: urokinase-type plasminogen activator (uPA) (UniProt P06869); test: ligand blots, ELISA and pull-down assays
[6] = target: urokinase-type plasminogen activator (uPA) (UniProt P06869); test: summary of FIGS. 13-17

B1: 6× His-Slurp1 (recombinant, expressed in E. coli, partially purified on nickel-ion column) (ligand, UniProt Q9Z0K7 23-110, looked up, not shown: small tags and cut ends)
chain: FRCYTCEQPTAINSCKNIAQCKMEDTACKTVLETVEAAFPFNHSPMVTRSCSSSCLATDPDGIGVAHPVFCCFRDLCNSGFPGFVAGL
binding (uPA in kidney lysate [1]): binds | binding (uPA in kidney lysate [2]): binds

B2: MBP-Slurp1 fusion protein (expressed in E. coli, purified through amylose resin) (protein, UniProt Q9Z0K7 23-110, looked up, not shown: large carriers)
chain: FRCYTCEQPTAINSCKNIAQCKMEDTACKTVLETVEAAFPFNHSPMVTRSCSSSCLATDPDGIGVAHPVFCCFRDLCNSGFPGFVAGL
binding [3]: binds | binding [4]: binds

B3: Slurp1 (secreted Ly-6/urokinase plasminogen activator receptor-related protein-1) (ligand, UniProt Q9Z0K7 23-110, looked up)
chain: FRCYTCEQPTAINSCKNIAQCKMEDTACKTVLETVEAAFPFNHSPMVTRSCSSSCLATDPDGIGVAHPVFCCFRDLCNSGFPGFVAGL
binding [5]: binds | binding [6]: binds
